These are yes or no findings as the source states them, for the method shown. In cells and extracts the contact can be indirect. Some binding calls cover weakened binding; strength is not graded here.
Target: Proliferating cell nuclear antigen (PCNA) (human (endogenous in HCC cell lines)) (UniProt P12004)
Test: co-IP; Protein A/G Magnetic IP/Co-IP kit; cells lysed in enhanced lysis buffer with protease and phosphatase inhibitors; supernatants incubated with 1-4 ug of primary antibodies overnight at 4°C, then immunoblotting

By UniProt entry, the sequences of proteins in these tests, tags left out.
UniProt P12004: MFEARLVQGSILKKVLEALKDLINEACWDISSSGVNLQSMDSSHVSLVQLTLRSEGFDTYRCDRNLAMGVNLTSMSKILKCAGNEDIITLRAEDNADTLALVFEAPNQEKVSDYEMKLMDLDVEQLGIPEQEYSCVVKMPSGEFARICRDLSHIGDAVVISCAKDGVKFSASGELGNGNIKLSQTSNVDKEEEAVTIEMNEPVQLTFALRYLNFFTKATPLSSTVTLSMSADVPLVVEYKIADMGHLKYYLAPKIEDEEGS
UniProt P09874: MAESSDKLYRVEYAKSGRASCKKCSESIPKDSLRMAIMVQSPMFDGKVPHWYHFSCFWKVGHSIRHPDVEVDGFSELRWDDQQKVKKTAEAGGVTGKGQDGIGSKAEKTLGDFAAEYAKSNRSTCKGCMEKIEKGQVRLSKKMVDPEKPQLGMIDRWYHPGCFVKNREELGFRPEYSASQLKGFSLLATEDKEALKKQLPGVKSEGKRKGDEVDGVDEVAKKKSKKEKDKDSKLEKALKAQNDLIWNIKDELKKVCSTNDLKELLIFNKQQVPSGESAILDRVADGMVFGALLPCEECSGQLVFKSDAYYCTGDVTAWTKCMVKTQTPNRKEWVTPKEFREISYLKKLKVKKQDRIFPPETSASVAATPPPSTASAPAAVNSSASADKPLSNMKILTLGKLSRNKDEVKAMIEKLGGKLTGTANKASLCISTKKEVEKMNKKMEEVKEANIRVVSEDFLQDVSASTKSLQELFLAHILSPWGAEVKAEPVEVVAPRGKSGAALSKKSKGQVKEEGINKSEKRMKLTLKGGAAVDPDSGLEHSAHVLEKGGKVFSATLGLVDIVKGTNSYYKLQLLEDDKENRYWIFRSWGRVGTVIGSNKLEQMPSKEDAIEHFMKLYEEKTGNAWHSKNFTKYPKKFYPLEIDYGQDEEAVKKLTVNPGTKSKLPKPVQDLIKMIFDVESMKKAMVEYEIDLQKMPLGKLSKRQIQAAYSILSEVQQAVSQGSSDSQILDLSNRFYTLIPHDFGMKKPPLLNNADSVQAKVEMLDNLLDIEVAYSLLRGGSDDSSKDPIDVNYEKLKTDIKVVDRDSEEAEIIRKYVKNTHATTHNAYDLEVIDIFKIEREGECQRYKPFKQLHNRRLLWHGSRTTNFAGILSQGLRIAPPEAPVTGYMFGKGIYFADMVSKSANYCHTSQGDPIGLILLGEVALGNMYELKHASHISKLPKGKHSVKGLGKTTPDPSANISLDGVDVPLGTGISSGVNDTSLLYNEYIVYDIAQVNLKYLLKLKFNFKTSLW

binding: binds
Substance: poly (ADP-ribose) polymerase 1 (PARP1) (from UniProt P09874 1-1014)

Source: paper PMC12043649
